Source: PMC9299292, “The nuclear egress complex of Epstein-Barr virus buds membranes through an oligomerization-driven mechanism” (PLoS Pathogens, 2022)
No constants are given. Whether binding was seen depends on the method and setting. Some results given as binding are weak or reduced against the parent protein; the word gives no strength.

T1: EBV BFRF1 1-195 (Epstein-Barr virus (strain B95-8)) (UniProt P03185)
T1 sequence: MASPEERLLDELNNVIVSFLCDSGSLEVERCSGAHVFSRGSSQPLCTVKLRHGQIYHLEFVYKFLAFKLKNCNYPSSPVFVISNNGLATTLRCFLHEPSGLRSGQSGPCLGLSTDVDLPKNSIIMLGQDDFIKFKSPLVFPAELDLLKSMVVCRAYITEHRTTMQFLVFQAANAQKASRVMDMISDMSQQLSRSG


Experiments:
[1] = target: EBV BFRF1 1-228-His8 (Epstein-Barr virus (strain B95-8)) (UniProt P03185); test: co-purification (tandem affinity + SEC); co-expressed in E. coli; Ni-NTA (His-SUMO on BFLF2), then glutathione Sepharose (GST on BFRF1), tags cleaved on the column with PreScission protease, some constructs over HisTrap HP, then S75 10/300 size exclusion in 20 mM buffer, 100 mM NaCl, 0.5 mM TCEP; 4°C
[2] = target: T1, EBV BFRF1 1-195 (Epstein-Barr virus (strain B95-8)); test: crystal structure; EBV NEC195Δ65; hanging drops at 20°C, protein in 20 mM HEPES pH 8.0, 100 mM NaCl, 0.5 mM TCEP over 25% PEG 3350, 0.1 M Tris-HCl pH 8.5, 0.2 M Li2SO4; space group P4(3)2(1)2, five heterodimers in the asymmetric unit; 3.97 Å; both purified

Molecule | binding [1] | binding [2]
EBV BFLF2 16-318 (from UniProt P0CK47 16-318) (domain or fragment) | binds | –
EBV BFLF2 25-318 (from UniProt P0CK47 25-318) (domain or fragment) | binds | –
EBV BFLF2 35-318 (from UniProt P0CK47 35-318) (domain or fragment) | binds | –
EBV BFLF2 45-318 (from UniProt P0CK47 45-318) (domain or fragment) | binds | –
EBV BFLF2 66-318 (domain or fragment, UniProt P0CK47 66-318) RSICSRHTRHGVDRSHFSLRDFFRGISANFELGKDFLREMNTPIHVSEAVFLPLSLCTLSPGRCLRLSPFGHSLTLGSHCEICINRSQVHVPQEFSSTQLSFFNNVHKIIPNKTFYVSLLSSSPSAVKAGLSQPSLLYAYLVTGHFCGTICPIFSTNGKGRLIMHLLLQGTSLHIPETCLKLLCENIGPTYELAVDLVGDAFCIKVSPRDTVYEKAVNVDEDAIYEAIKDLECGDELRLQIINYTQLILENKQ | – | binds
